This is one part of the list. Shown are side measurements of this screen, not its main read-out; they come without a call. The list favours compounds with an active or inconclusive main result. Potencies come from curve fits of mixed quality, noted in brackets.
Test: qHTS Assay for Modulators of Lamin A Splicing
Conditions: HeLa LMNA splicing GFP/RFP minigene ratio, 48 h
Summary of the method: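 Read-out is the ratio of GFP to DsRed2 object intensity, acquired by 488 nm laser-scanning cytometry on HeLa lamin A-EGFP minigene reporter cells. Compound incubation 48 hrs at 37 °C in Opti-MEM with 2% FBS; DMSO 0.5% final.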

[1] = measured here: RFP viability control channel
[2] = measured here: GFP splicing reporter channel

Structure (SMILES)	AC50 [1]	AC50 [2]
CCOC(=O)c1cc2sccc2n1CC(=O)Nc1ccc(OC)cc1	3.16 µM [rising, single point]	
Cc1cc(Nc2cccc(Cl)c2)nc2ccc(NC(=O)c3cccnc3)cc12	11.2 µM [falling, partial curve]	10 µM [falling, partial curve]
COC(=O)NNC1=CC(=O)CC(C)(C)C1	0.01 µM [falling, full curve, poor fit]	
O=C(Cc1n[nH]c(=O)c2ccccc12)OCC(=O)c1ccc2c(c1)OCCO2	1.58 µM [rising, partial curve]	
O=C(Nc1ccncc1)C1CC1c1ccccc1 (stereo not drawn)	11.2 µM [rising, partial curve]	
COC(=O)c1c(NC(=O)CN2CCC3(O)CCCCC3C2c2ccc(OC)cc2OC)sc(C)c1C (stereo not drawn)	11.2 µM [rising, partial curve]	
COc1ccc(C)cc1NC(=O)C(NC(=O)c1cc(OC)c(OC)c(OC)c1)C(C)C (stereo not drawn)	6.31 µM [falling, single point]	
CCCCCCSc1nsc(N)n1		15.8 µM [rising, single point]
O=C1CCN(Cc2nc(-c3ccc(Cl)cc3)no2)CCN1	0.708 µM [falling, full curve, poor fit]	0.0398 µM [falling, full curve]
O=C(Cc1cccc(C(F)(F)F)c1)NCc1ccc(Cl)cc1Cl	5.01 µM [falling, single point]	
O=C(CCc1ccc(Oc2cc([N+](=O)[O-])cc([N+](=O)[O-])c2)cc1)N1CCCCC1	25.1 µM [rising, single point]	
O[C@@H]1[C@@H]2c3cc4c(cc3CN3CCC(=C[C@@H]1O)[C@H]23)OCO4	3.55 µM [falling, partial curve]	4.47 µM [falling, partial curve]
COC(=O)CCC(=O)OC1(C)C(=O)C2=CN(Cc3ccco3)C(c3ccc(OC)cc3)=CC2=C(Br)C1=O (stereo not drawn)		1.26 µM [rising, single point]
CC(C)COc1ccc(C(=O)CCN2CCCCC2)cc1	11.2 µM [rising, partial curve, poor fit]	12.6 µM [rising, partial curve, poor fit]
N#Cc1nc(-c2ccco2)oc1N1CCN(c2ccccc2)CC1	15.8 µM [rising, single point]	
COc1cccc(NC(=O)CSc2nnc3cc(C)nc(N)n23)c1	0.316 µM [falling, full curve]	
N#CC1=C(N)OC2=C(CCc3ccccc32)C1c1ccccc1Cl (stereo not drawn)	3.98 µM [rising, partial curve]	
COc1ccc(-c2[nH]ncc2N=Nc2ccccc2)cc1	31.6 µM [falling, partial curve]	28.2 µM [falling, partial curve]

Structure (SMILES)	AC50 [1]	AC50 [2]
CCCOc1nc2c(c(=O)n(C)c(=O)n2C)n1Cc1cccc2ccccc12	3.98 µM [rising, full curve]	2.24 µM [rising, partial curve]
Cc1ccc(OCC(=O)OCc2cc(=O)n3nc(-c4cccs4)sc3n2)cc1		0.0708 µM [falling, partial curve]
CCC(C)OC(=O)c1[nH]c2c(c1C)C(=O)CC(c1ccc(N(C)C)cc1)C2 (stereo not drawn)	35.5 µM [rising, single point]	
CN(C)/C=C1/Sc2ccccc2C1=O		2 µM [rising, partial curve, poor fit]
COc1ccc(C(=O)NCCSc2ccccc2)cc1OC		0.501 µM [falling, full curve, poor fit]
COc1ccccc1NC(=O)NCc1ccccc1F		0.112 µM [rising, full curve, poor fit]
O=C(/C=C1\NC2(CCCC2)Cc2ccccc21)C(=O)N/N=C/c1ccccc1O	2.24 µM [rising, full curve, poor fit]	
Cn1cc(S(=O)(=O)c2ccc(Cl)cc2)c(=O)c2cc(F)c(N3CCCC3)cc21	25.1 µM [falling, partial curve]	0.0398 µM [falling, full curve]
CCCC1Cc2c(sc(N)c2C#N)CO1 (stereo not drawn)		0.158 µM [rising, full curve, poor fit]
Cc1ccc(NS(=O)(=O)c2ccc(NC(=O)c3ccc(Br)o3)cc2)c(C)c1	11.2 µM [rising, partial curve]	
Cc1sc2nc(CN3CCCCC3)nc(Cl)c2c1C	22.4 µM [rising, partial curve, poor fit]	
C[C@H](Cc1ccc(O)c(O)c1)[C@@H](C)Cc1ccc(O)c(O)c1	7.94 µM [falling, partial curve, poor fit]	4.47 µM [falling, full curve, poor fit]
O=C(C1CCC1)N1CCCc2cc(S(=O)(=O)Nc3ccc(F)cc3)ccc21		0.0501 µM [falling, full curve, poor fit]
Cc1cccc(CNC(=O)CCCN2C(=O)CCn3nc(-c4cn(C)c5ccccc45)cc32)c1	0.158 µM [falling, full curve, poor fit]	1.41 µM [falling, full curve, poor fit]
O=C(Nc1nc(-c2ccc(Cl)cc2)cs1)NC1CCCCC1	31.6 µM [rising, single point]	22.4 µM [rising, single point]
COc1ccc(OC)c(C2CC(=O)OC3=C2C(=O)CC(C)(C)C3)c1 (stereo not drawn)	14.1 µM [rising, single point]	1 µM [rising, partial curve]
O=C(CSc1nnc(SCc2cccc3ccccc23)s1)N/N=C/c1c[nH]c2ccccc12	1.26 µM [rising, partial curve]	
O=C(C[n+]1cn(C(F)F)c2ccccc21)c1ccc(OC(F)F)cc1	35.5 µM [falling, partial curve, poor fit]	22.4 µM [falling, single point]

Given field by field: 2 of the compounds above
COc1ccc(C(=O)NCCSc2ccccc2)cc1OC
  AC50 [2]: 0.501 µM [falling, full curve, poor fit]
COc1ccccc1NC(=O)NCc1ccccc1F
  AC50 [2]: 0.112 µM [rising, full curve, poor fit]
